Measurements reported in PubChem BioAssay AID743454 (Peter MacCallum Cancer Centre, 2014)

Aim: 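Search for knock-downs that restore vorinostat killing in resistant colon cancer cells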 (primary screen)
System: human HCT116-VR colon cancer cells, selected for vorinostat resistance
Reagents: siRNA pool against human genes, 40 nM siRNA pool
Timing: vorinostat for 24 h, read-out about 72 h after transfection
Challenge: vorinostat at 2.5 µM final
Measurement: 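Cell viability by CellTiter-Fluor and caspase 3/7 activity by luminescence, each scaled to mock wells per plate, duplicates averaged, then robust z-scored over all plates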
Scale: viability robust z-score: higher = more viable cells than screen typical; caspase robust z-score: higher = more caspase 3/7 activity than screen typical
Rule for the call: 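a knock-down is a hit when classed RV1 or RV2 for lowered viability, or CA1 or CA2 for caspase activation; those lethal without drug were dropped; hits were retested singly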
Shown is an unselected part of about 18,000 deposited reagents. 450 of all reagents (2.5%) were called active. 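Single biological run; no consistent viability z cut-off exists, so the class columns, not z-scores, define the calls.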 Unmarked entries are inactive.

viability hit class | caspase hit class | viability robust z-score | caspase robust z-score | gene knocked down
no change | no change | 0.36 | -0.87 | PTGFRN
no change | no change | 0.98 | 1.17 | PLCL2
no change | no change | 0.49 | 4.88 | GNPAT
no change | no change | -1.73 | 0.15 | NAV2
no change | no change | -3.23 | 0.09 | TRMO
no change | no change | 0.26 | -1.1 | SLC4A10
no change | no change | -0.29 | -0.64 | SETD1A
no change | no change | 0.36 | 1.03 | KCNMB4
no change | no change | -0.2 | 0.45 | FAM9A
no change (active) | CA1 (caspase activation) | -0.38 | 5.39 | KRTAP13-2
no change | no change | -0.29 | 1.35 | NSUN5P1
no change | no change | -0.07 | 0.31 | TSC1
no change | no change | -0.05 | 0.67 | SERPING1
no change | no change | 0.36 | -1.18 | COMMD5
no change | no change | -0.02 | -0.24 | ABHD17C
no change | no change | -0.01 | 2.1 | ZPBP
no change | no change | 0.04 | -0.64 | ABCA12
no change | no change | 1.7 | -0.26 | BHLHE22
no change | no change | 0.57 | -0.92 | ABCC5
no change | no change | -0.2 | 0.12 | AVPR1A
no change | no change | -0.19 | -1.18 | IDH3A
no change | no change | 0.38 | -1.01 | LAMB4
no change | no change | -0.04 | 2.13 | CLASRP
no change | no change | 0.62 | 0.16 | GKN2
no change | no change | -1.24 | -0.38 | UBE2G2
no change | no change | -0.76 | -1.03 | ZNF439
no change | no change | -0.45 | 0.4 | UBR1
no change | no change | 0.12 | -1.09 | ARMC3
no change | no change | 0.24 | -0.76 | WFIKKN1
no change | no change | 0 | -1.04 | MLXIPL
no change | no change | -1.34 | -0.6 | ID1
no change | no change | 0.37 | -0.71 | PCGF5
no change | no change | 1.49 | -0.58 | SSH1
no change | no change | -0.8 | 2.07 | LRIG1
no change | no change | 0.59 | -0.94 | ATXN2
no change | no change | -1.07 | -0.9 | MICA
no change | no change | 0.04 | 0.37 | ATP5F1A
no change | no change | 0.58 | 0.29 | STARD7-AS1
no change | no change | -0.74 | -0.08 | ICAM4
no change | no change | 0.05 | -0.52 | NLRP11
no change | no change | -1.77 | 3.48 | RBM4B
no change | no change | -0.09 | -0.3 | CACUL1
no change | no change | 0.16 | -0.44 | TPST2
no change | no change | 0.82 | -0.24 | STOX1
no change | no change | -0.92 | 1.42 | FARP1
no change | no change | -0.32 | 0.94 | UBL4B
no change | no change | -0.74 | -0.41 | MTDH
no change | no change | -1.36 | -0.18 | SYF2
no change | no change | 0.65 | 0.02 | MEOX2
no change | no change | 0.24 | 0.01 | PPP2R2D
no change | no change | -0.52 | 3.26 | LKAAEAR1
no change | no change | 1.6 | 1.21 | CDH22
no change | no change | 0.45 | -0.58 | KRT33B
no change | no change | -0.75 | 1.97 | DLX1
no change | no change | 0.88 | -0.11 | ITGA2
no change | no change | 0.44 | -0.6 | GIPR
no change | no change | -0.21 | 0.21 | APLP2

Only “viability robust z-score” (7 entries from above):
ABCC5	0.57
AVPR1A	-0.2
IDH3A	-0.19
LAMB4	0.38
CLASRP	-0.04
GKN2	0.62
UBE2G2	-1.24
